Experimental data published in doi:10.1101/2020.08.15.252130.
For part of these data: Negatives hold for the conditions tested. For part of these data: Where a protein sequence is shown, tags need not be part of it. For part of these data: A weaker result is weaker than the reference pair of the same experiment. For part of these data: The exact form of at least one protein or probe is not confirmed.

What was measured:
[1] = target: T1, LS2 linker-RRM2 (Drosophila melanogaster) (UniProt Q9W1T4); assay: NMR; conditions: TMPyP4 (disrupts G4), overnight; residues 204-325
T1 sequence (looked up): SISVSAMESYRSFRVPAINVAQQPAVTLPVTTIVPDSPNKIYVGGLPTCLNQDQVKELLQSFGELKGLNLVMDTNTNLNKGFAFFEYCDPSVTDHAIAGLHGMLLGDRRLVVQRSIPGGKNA

[2] = target: LS2 RRM1,2 GS_linker H197-P233,replaced,by,GGS-rich,linker,of,identical,length (Drosophila melanogaster) (UniProt Q9W1T4); assay: NMR; conditions: linker contribution lost, both RRMs still bind; residues 110-325
[3] = target: LS2 RRM1,2 F285D,F287D (RRM2_RNP1) (Drosophila melanogaster) (UniProt Q9W1T4); assay: NMR; conditions: RRM2 contribution lost, RRM1 and linker kept; residues 110-325
[4] = target: LS2 RRM1,2 K192E,R194E (RRM1_beta5) (Drosophila melanogaster) (UniProt Q9W1T4); assay: NMR; conditions: RRM1 contribution lost, RRM2 and linker kept; residues 110-325
[5] = target: T1, LS2 linker-RRM2 (Drosophila melanogaster); assay: ITC; conditions: 7 C, 1:1 molar ratio; residues 204-325
[6] = target: LS2 RRM2 (Drosophila melanogaster) (UniProt Q9W1T4); assay: NMR; conditions: minor CSP; residues 242-319

Question: Does GGGGAGGAGGGGGGCGUAUGA [21-mer G4 RNA] bind [1]?
Answer: no binding

Question: Does GGGGAGGAGGGGGGCGUAUGA [21-mer G4 RNA] bind [2]?
Answer: binds more weakly

Question: Does GGGGAGGAGGGGGGCGUAUGA [21-mer G4 RNA] bind [3]?
Answer: binds more weakly

Question: Does GGGGAGGAGGGGGGCGUAUGA [21-mer G4 RNA] bind [4]?
Answer: binds more weakly

Question: And the Kd [5]?
Answer: 15.7 µM

Question: Does GGUGGUGG [8-mer] bind [6]?
Answer: binds more weakly
